Literature values, collected in paper PMC10135964, “One Scaffold, Two Conformations: The Ring-Flip of the Messenger InsP8 Occurs under Cytosolic Conditions” (Biomolecules, 2023).

Test system: mammalian cells
Details: cited from earlier work; for Cellular concentration: approximate concentrations in mammalian cells

Structure (SMILES)	Cellular concentration [µM]	endogenous concentration
O=P(O)(O)O[C@H]1[C@H](OP(=O)(O)O)[C@@H](OP(=O)(O)O)[C@H](OP(=O)(O)O)[C@@H](OP(=O)(O)O)[C@H]1OP(=O)(O)O [InsP6]	20 to 50	
O=P(O)(O)O[C@@H]1[C@@H](OP(=O)(O)O)[C@H](OP(=O)(O)OP(=O)(O)O)[C@@H](OP(=O)(O)O)[C@H](OP(=O)(O)OP(=O)(O)O)[C@@H]1OP(=O)(O)O [InsP8, 1,5(PP)2-InsP4]	< 1	around 1 µM
O=P(O)(O)O[C@H]1[C@@H](OP(=O)(O)O)[C@H](OP(=O)(O)O)[C@@H](OP(=O)(O)OP(=O)(O)O)[C@H](OP(=O)(O)O)[C@H]1OP(=O)(O)O [5PP-InsP5]	1 to 5	
